Values of other authors in US8409552B2, “Anthranillic acid amides and derivatives thereof as cosmetic and pharmaceutical active compounds” (Symrise AG, priority 2002, dated 2013).
At least one structure is not confirmed: it was looked up by name or label, or the drawing left a doubt.

Conditions: cited from earlier work

## COc1cc(C=CC(=O)Nc2ccccc2C(=O)O)ccc1O [N-(3-methoxy,(sic)4-hydroxycinnamoyl)anthranilic acid]
  inhibitory effect (anti-allergic action) compared with tranilast: only equal to that of tranilast
